# About 4,000 (1%) of roughly 390,000 compounds were called active. The shares of active, inactive and inconclusive entries below differ from those in the screen. Calls come from the whole dose curve; as a rule, active = well fitted inhibition curve with a large enough effect; inconclusive = small, poorly fitted or top-dose-only effect, or another doubt; inactive = no such curve, though single readings can be large or run the other way. Potencies beside an inconclusive call are fits to weak or partial responses and may not hold up.
# Sequences of proteins named here, by UniProt entry; tags and fusion partners are left off. A change or cut given only in a name is not applied to a line headed by its entry.
# UniProt Q9UNA4: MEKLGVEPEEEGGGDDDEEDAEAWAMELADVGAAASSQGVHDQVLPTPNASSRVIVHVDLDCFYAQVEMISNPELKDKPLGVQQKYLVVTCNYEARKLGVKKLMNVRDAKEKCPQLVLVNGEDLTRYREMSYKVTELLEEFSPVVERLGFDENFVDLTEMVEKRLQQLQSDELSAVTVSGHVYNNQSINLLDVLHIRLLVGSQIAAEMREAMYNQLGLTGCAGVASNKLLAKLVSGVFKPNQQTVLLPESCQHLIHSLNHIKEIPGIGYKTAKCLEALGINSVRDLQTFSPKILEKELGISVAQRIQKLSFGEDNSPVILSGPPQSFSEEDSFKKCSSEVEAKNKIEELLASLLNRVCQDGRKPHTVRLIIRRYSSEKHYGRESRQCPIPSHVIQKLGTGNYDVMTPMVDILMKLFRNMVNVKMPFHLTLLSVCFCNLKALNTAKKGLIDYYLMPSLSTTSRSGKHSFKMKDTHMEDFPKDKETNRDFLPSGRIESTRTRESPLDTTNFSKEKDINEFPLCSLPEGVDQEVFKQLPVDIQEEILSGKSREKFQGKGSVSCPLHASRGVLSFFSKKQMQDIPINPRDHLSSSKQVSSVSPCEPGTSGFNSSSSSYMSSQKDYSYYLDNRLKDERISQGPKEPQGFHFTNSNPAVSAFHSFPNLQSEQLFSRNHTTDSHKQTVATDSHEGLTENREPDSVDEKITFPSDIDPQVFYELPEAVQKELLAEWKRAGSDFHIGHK
# Target: DNA polymerase iota (Homo sapiens) (UniProt Q9UNA4)
# Assay: qHTS for Inhibitors of Polymerase Iota
# Conditions: Pol iota fluorescent replication assay, 10 min; series mostly up to 115 µM
# Method in brief: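 Fluorescent replication assay read twice, at 0 min and 10 min after adding 50 nM (final) substrate. Enzyme (10 nM) and compounds were first incubated 15 min at room temperature; enzyme-free buffer wells were negative controls.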
# Potency is the fitted concentration of half-maximal effect.
row,SMILES,Potency
1,CN(c1ccc(Cl)cc1)S(=O)(=O)c1nnc(NC(=O)c2ccco2)s1,"inconclusive: 50.1 µM [inhibitor, partial curve, poor fit]"
2,CC1=NNC(=O)/C1=C\c1cn(-c2ccccc2)nc1-c1cccs1,"inconclusive: 12.6 µM [inhibitor, full curve, poor fit]"
3,CCOc1ccc(-n2c(SCC(=O)N3CCCc4ccccc43)nc3c([nH]c4ccccc43)c2=O)cc1,inactive
4,CC(C)Cc1nnc(NC(=O)CC(=O)Nc2ccccc2C(=O)O)s1,"inconclusive: 39.8 µM [inhibitor, partial curve, poor fit]"
5,FC(F)Oc1ccccc1/C=N/n1cnc2ccccc21,"inconclusive: 89.1 µM [inhibitor, partial curve, poor fit]"
6,COc1cc(/C=N/NC(=O)c2ccc3c(c2)OCCO3)cc(Br)c1O,inactive
7,COc1cc2[nH]c(C(=O)N(C)Cc3ccccc3)cc2c(OC)c1OC,"inconclusive: 31.6 µM [inhibitor, single point]"
8,O=C(CSc1nnnn1-c1ccc(F)cc1)Nc1nc2ccccc2s1,"inconclusive: 35.5 µM [inhibitor, full curve, poor fit]"
9,O=[N+]([O-])c1ccccc1/C=C/C=N/n1c(-c2ccc(Cl)cc2)n[nH]c1=S,"inconclusive: 12.6 µM [inhibitor, full curve, poor fit]"
10,CCCCC(=O)NCCc1ccc(S(N)(=O)=O)cc1,inactive
11,Cc1ccc(NC(=O)CCSCCC(=O)Nc2ccc(C)c(C)c2)cc1C,"inconclusive: 25.1 µM [inhibitor, partial curve, poor fit]"
12,c1coc(-c2nnc(-c3ccco3)nn2)c1,"inconclusive: 2.82 µM [inhibitor, full curve, poor fit]"
13,COc1ccc(COC(=O)NNC(=O)c2ccc(OC)cc2)cc1,"inconclusive: 56.2 µM [inhibitor, partial curve, poor fit]"
14,CCCCNc1c(-c2cccc(SC3CCCCC3)c2)nc2ccc(Cl)cn12,"inconclusive: 25.1 µM [inhibitor, single point]"
15,O=[N+]([O-])c1cc(S(=O)(=O)Oc2ccccc2)ccc1Cl,"inconclusive: 63.1 µM [inhibitor, partial curve, poor fit]"
16,CC(C)Oc1ccc(CNC(=O)c2cnc3sc(N4CCCCCC4)nn3c2=O)cc1,inactive
17,COc1ccc(CC(=O)OC(C)C(=O)c2ccc(C)cc2)cc1 (stereo not given),"inconclusive: 89.1 µM [inhibitor, single point]"
18,CCc1c(C(C)S(=O)(=O)c2ccc(C)cc2)[nH]c(=O)n1-c1ccc(OC(F)(F)F)cc1 (stereo not given),"inconclusive: 17.8 µM [inhibitor, single point]"
19,COc1cccc(CNC(=O)c2ccc(CN3CC(=O)N4CCCCC4C3=O)cc2)c1 (stereo not given),"inconclusive: 89.1 µM [inhibitor, partial curve, poor fit]"
20,N#Cc1c(/N=C/C=C/c2ccccc2)sc2c1CCCC2,"inconclusive: 22.4 µM [inhibitor, partial curve, poor fit]"

# Not a retest: entries from further up.
row,SMILES,Potency
1,CN(c1ccc(Cl)cc1)S(=O)(=O)c1nnc(NC(=O)c2ccco2)s1,"inconclusive: 50.1 µM [inhibitor, partial curve, poor fit]"
2,CC1=NNC(=O)/C1=C\c1cn(-c2ccccc2)nc1-c1cccs1,"inconclusive: 12.6 µM [inhibitor, full curve, poor fit]"

# Continued:

row,SMILES,Potency
1,CN(CC(=O)Nc1ccc(Cl)cc1)Cc1cc(=O)n2ccsc2n1,"inconclusive: 0.891 µM [inhibitor, full curve, poor fit]"
2,Nn1c(SCC(=O)NCC2CCCO2)nnc1-c1ccc(OC(F)F)cc1 (stereo not given),inactive
3,CCCCc1ccc(CC(=O)NO)cc1,inactive
4,O=C1NCCN(Cc2cccc(Oc3ccccc3)c2)C1CC(=O)N1CCCCO1 (stereo not given),"inconclusive: 39.8 µM [inhibitor, partial curve, poor fit]"
5,Cc1ccc(S(=O)(=O)N2CCN(c3nc(C(N)=O)nc4ccccc34)CC2)cc1,inactive
6,O=C(COC(=O)c1ccc([N+](=O)[O-])s1)NCc1ccccc1,"inconclusive: 89.1 µM [inhibitor, single point]"
7,CC(C)CN(CC(C)C)S(=O)(=O)c1ccc(C(=O)Nc2sc3c(c2C(N)=O)CCN(C(C)C)C3)cc1,"inconclusive: 100 µM [inhibitor, single point]"
8,COc1ccc(N(C)S(=O)(=O)c2ccc3c(c2)n(C)c(=O)c(=O)n3C)cc1,"inconclusive: 100 µM [inhibitor, partial curve, poor fit]"
9,O=c1c2c(nc3n1CCCCC3)sc1c(O)c(Br)ccc12,"inconclusive: 79.4 µM [inhibitor, single point]"
10,COc1ccc(Cn2nnnc2C(c2ccccc2)N2CCN(c3ccccc3)CC2)cc1 (stereo not given),inactive
11,COc1cc(/C=C2\CC(C(C)(C)C)C/C(=C\c3cc(OC)c(OC)c(OC)c3)C2=O)cc(OC)c1OC (stereo not given),"inconclusive: 14.1 µM [inhibitor, full curve, poor fit]"
12,CCN(CC(=O)NC(=O)NCc1ccco1)Cc1nc2ccccc2c(=O)[nH]1,"inconclusive: 35.5 µM [inhibitor, partial curve]"
13,CC(=S)/C=C1\Sc2ccccc2N1C,"inconclusive: 39.8 µM [inhibitor, single point]"
14,O=C(OCC(=O)c1ccc(Cl)s1)c1cnccn1,"inconclusive: 31.6 µM [inhibitor, single point]"
15,CCC(=O)Nc1ccccc1C(=O)OCc1cc(=O)n2cc(C)sc2n1,inactive
16,Cc1cc(/C=C(/C#N)c2nc3ccccc3[nH]2)c(C)n1-c1cc(C(=O)O)cc(C(=O)O)c1,"inconclusive: 12.6 µM [inhibitor, full curve, poor fit]"
17,COc1ccccc1C(=O)Nc1ccc(C(=O)/C=C/c2cccs2)cc1,"inconclusive: 22.4 µM [inhibitor, partial curve]"
18,Nc1ccc(N=Nc2ccc(N)cc2)cc1,"inconclusive: 89.1 µM [inhibitor, single point]"
19,CC(=C\c1ccccc1)/C=C1/SC(=S)N(C(C(=O)O)C(C)C)C1=O (stereo not given),"inconclusive: 22.4 µM [inhibitor, partial curve, poor fit]"
20,N#Cc1c(NC(=O)c2ccc(Cn3cc(Br)cn3)o2)sc2c1CCCCC2,"inconclusive: 22.4 µM [inhibitor, partial curve, poor fit]"

# Reference: PubChem BioAssay AID588590 (National Center for Advancing Translational Sciences (NCATS), 2011)
